Values from PubChem BioAssay AID1508597 (Cure First, 2020).
This is a random part of the about 2,100 reagents, in one setting of the screen. 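Calls flag viability under 80% in either arm, not effects specific to rucaparib; the reference for percent is not stated.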 Entries without a mark were called inactive. Reagents against one gene are numbered here. Some reagents were tested in more than one well and are listed for each. The record does not give: the 100% reference.

Purpose: 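Knock-downs altering ovarian cancer cell survival with or without PARP inhibitor rucaparib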 (primary screen)
System: human ovarian carcinoma lines grown from tumours: OCI-P5x (papillary serous) and OCI-C5x (clear cell)
Knock-down reagent: siRNA pool against human genes, 1.25 pmol siRNA per well
Time to read-out: 72 h or 96 h, depending on the cell culture
Challenge: rucaparib 20 µM (about IC30) or vehicle, present until read-out
Rucaparib or vehicle: Vehicle
Cell line: OCI-C5x (clear cell)
Measured: 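Luminescent ATP-based viability assay read 72 or 96 h after transfection, depending on culture, given as normalised percent viability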
Reading the numbers: viability, normalised: higher = more viable cells remaining
Rule for the call: 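Active when normalised viability falls below 80 percent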
Calls: active = viability under 80%; inactive = viability 80% or more

For RRM2B (GeneID 50484), technical replicate 1, what was measured?
viability, normalised (%): 32.5 (active)

For RRM2B (GeneID 50484), technical replicate 2, what was measured?
viability, normalised (%): 43.2 (active)

How did the screen score RRM2B (GeneID 50484), technical replicate 3?
viability, normalised (%): 33.4 (active)

For NME9 (GeneID 347736) #1, technical replicate 1, what does the deposit list?
viability, normalised (%): 55.9 (active)

For NME9 (GeneID 347736) #1, technical replicate 2, what was measured?
viability, normalised (%): 48.1 (active)

With NME9 (GeneID 347736) #1, technical replicate 3, what does the deposit list?
viability, normalised (%): 43 (active)

With NME9 (GeneID 347736) #2, technical replicate 1, how do the results read?
viability, normalised (%): 45.6 (active)

For NME9 (GeneID 347736) #2, technical replicate 2, what does the deposit list?
viability, normalised (%): 47.4 (active)

For NME9 (GeneID 347736) #2, technical replicate 3, how do the results read?
viability, normalised (%): 47.2 (active)

With NME6 (GeneID 10201), technical replicate 1, what was measured?
viability, normalised (%): 60.9 (active)

What did the screen give for NME6 (GeneID 10201), technical replicate 1?
viability, normalised (%): 42 (active)

With NME6 (GeneID 10201), technical replicate 2, what was measured?
viability, normalised (%): 43.9 (active)

How did the screen score NME6 (GeneID 10201), technical replicate 2?
viability, normalised (%): 64 (active)

What did the screen give for NME6 (GeneID 10201), technical replicate 3?
viability, normalised (%): 50.6 (active)

For NME6 (GeneID 10201), technical replicate 3, what does the deposit list?
viability, normalised (%): 66.5 (active)

With TGFBR1 (GeneID 7046), technical replicate 1, what does the deposit list?
viability, normalised (%): 91.3

Which result is listed for TGFBR1 (GeneID 7046), technical replicate 2?
viability, normalised (%): 78.6 (active)

For TGFBR1 (GeneID 7046), technical replicate 3, what does the deposit list?
viability, normalised (%): 59.3 (active)

Which result is listed for ACVR1 (GeneID 90), technical replicate 1?
viability, normalised (%): 67 (active)

How did the screen score ACVR1 (GeneID 90), technical replicate 2?
viability, normalised (%): 66.5 (active)

Which result is listed for ACVR1 (GeneID 90), technical replicate 3?
viability, normalised (%): 61.8 (active)

7 neighbouring reagents already listed, for reference:
NME9 (GeneID 347736) #1, technical replicate 1 | viability, normalised (%): 55.9 (active)
NME9 (GeneID 347736) #1, technical replicate 2 | viability, normalised (%): 48.1 (active)
NME9 (GeneID 347736) #1, technical replicate 3 | viability, normalised (%): 43 (active)
NME9 (GeneID 347736) #2, technical replicate 1 | viability, normalised (%): 45.6 (active)
NME9 (GeneID 347736) #2, technical replicate 2 | viability, normalised (%): 47.4 (active)
NME9 (GeneID 347736) #2, technical replicate 3 | viability, normalised (%): 47.2 (active)
NME6 (GeneID 10201), technical replicate 1 | viability, normalised (%): 60.9 (active)

The list goes on:
What did the screen give for PARP14 (GeneID 54625), technical replicate 1?
viability, normalised (%): 30 (active)

With PARP14 (GeneID 54625), technical replicate 2, what was measured?
viability, normalised (%): 20.3 (active)

How did the screen score PARP14 (GeneID 54625), technical replicate 3?
viability, normalised (%): 43.8 (active)

Which result is listed for XRCC2 (GeneID 7516), technical replicate 1?
viability, normalised (%): 91.9

What did the screen give for XRCC2 (GeneID 7516), technical replicate 2?
viability, normalised (%): 47.2 (active)

For XRCC2 (GeneID 7516), technical replicate 3, what does the deposit list?
viability, normalised (%): 45.4 (active)

For ATXN7L3 (GeneID 56970), technical replicate 1, what does the deposit list?
viability, normalised (%): 22.9 (active)

With ATXN7L3 (GeneID 56970), technical replicate 2, what does the deposit list?
viability, normalised (%): 40.1 (active)

With ATXN7L3 (GeneID 56970), technical replicate 3, what was measured?
viability, normalised (%): 31.3 (active)

What is on record for SHPK (GeneID 23729), technical replicate 1?
viability, normalised (%): 52.9 (active)

How did the screen score SHPK (GeneID 23729), technical replicate 2?
viability, normalised (%): 69.5 (active)

With SHPK (GeneID 23729), technical replicate 3, how do the results read?
viability, normalised (%): 58.8 (active)

With CHUK (GeneID 1147), technical replicate 1, how do the results read?
viability, normalised (%): 56 (active)

What did the screen give for CHUK (GeneID 1147), technical replicate 2?
viability, normalised (%): 74.7 (active)

How did the screen score CHUK (GeneID 1147), technical replicate 3?
viability, normalised (%): 59.2 (active)

What is on record for MAP3K5 (GeneID 4217), technical replicate 1?
viability, normalised (%): 96.2

With MAP3K5 (GeneID 4217), technical replicate 2, how do the results read?
viability, normalised (%): 62.9 (active)

How did the screen score MAP3K5 (GeneID 4217), technical replicate 3?
viability, normalised (%): 60.5 (active)

Which result is listed for TAF1 (GeneID 6872), technical replicate 1?
viability, normalised (%): 40.3 (active)

What is on record for TAF1 (GeneID 6872), technical replicate 1?
viability, normalised (%): 61.8 (active)

Which result is listed for TAF1 (GeneID 6872), technical replicate 2?
viability, normalised (%): 54 (active)

With TAF1 (GeneID 6872), technical replicate 2, what does the deposit list?
viability, normalised (%): 58.2 (active)

How did the screen score TAF1 (GeneID 6872), technical replicate 3?
viability, normalised (%): 49 (active)

For TAF1 (GeneID 6872), technical replicate 3, how do the results read?
viability, normalised (%): 39.1 (active)
